Reference: PubChem BioAssay AID1671195 (Yale University, 2021)
Here is a random part of about 22,000 deposited reagents. About 1,510 of them (6.9%) count as active. 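Active includes knockdowns raising or lowering LDL uptake; positive z-scores mean more uptake, negative mean less.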

- Assay: 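Genes whose knockdown alters LDL uptake in liver cancer cells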 (primary screen)
- Cells: human Huh7 hepatoma cells
- Reagents: siRNA pool against human genes, 18 nM
- Timing: about 2 to 2.5 days of knockdown, then 8 h LDL uptake
- Conditions: DiI-labelled LDL at 30 µg/ml for 8 h, in lipoprotein-deficient serum medium
- Measured: 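Fluorescent LDL signal imaged in cells, scaled to the plate median, robust z-score for each replicate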
- Direction: robust z-score: higher = more LDL uptake after knockdown
- Rule for the call: 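a gene counts as active if at least two replicate z-scores exceed ±2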

no.	gene	robust z-score, replicate 1	robust z-score, replicate 2	robust z-score, replicate 3	activity call
1	LOC340518 (retired record)	0.584	1.13	0.665	inactive
2	MPL (MPL proto-oncogene, thrombopoietin receptor)	-0.689	-0.0452	-0.627	inactive
3	TRAF6 (TNF receptor associated factor 6)	0.343	-0.907	-1.03	inactive
4	BPNT1 (3'(2'), 5'-bisphosphate nucleotidase 1)	-0.137	-0.343	-0.224	inactive
5	BTLA (B and T lymphocyte associated)	-0.592	0.816	-0.336	inactive
6	CACNG4 (calcium voltage-gated channel auxiliary subunit gamma 4)	-0.676	-0.358	-0.413	inactive
7	PRLR (prolactin receptor)	0.66	0.464	0.326	inactive
8	H4C7 (H4 clustered histone 7)	-0.0309	0.883	-0.766	inactive
9	LOC389607 (retired record)	-0.803	-0.0782	-0.298	inactive
10	UCN (urocortin)	0.246	-0.433	-0.517	inactive
11	ATG12 (autophagy related 12)	0.296	-1.07	-1.2	inactive
12	NOTCH3 (notch receptor 3)	-0.397	-0.183	-0.717	inactive
13	PRKCI (protein kinase C iota)	0.437	-0.901	0.0515	inactive
14	SZRD1 (SUZ RNA binding domain containing 1)	-0.89	0.0272	1.46	inactive
15	OFD1 (OFD1 centriole and centriolar satellite protein)	-0.266	0.314	0.207	inactive
16	GNAT1 (G protein subunit alpha transducin 1)	0.149	-0.043	0.28	inactive
17	PRADC1 (protease associated domain containing 1)	2.71	2.71	2.25	active
18	KLRG2 (killer cell lectin like receptor G2)	1.7	1.39	1.23	inactive
19	PLEKHG1 (pleckstrin homology and RhoGEF domain containing G1)	-1.14	-2.09	-2.19	active
20	PRKCH (protein kinase C eta)	-0.125	-1.63	-0.606	inactive
21	ATG7 (autophagy related 7)	-0.337	-0.231	-0.348	inactive
22	LMAN1 (lectin, mannose binding 1)	0.117	-0.0307	0.499	inactive
23	SLC7A1	-2.43	-2.34	-1.97	active
24	ZHX1 (zinc fingers and homeoboxes 1)	1.62	2.5	2.6	active
25	LOC441093 (retired record)	0.204	0.146	-0.0445	inactive
26	HNRNPD (heterogeneous nuclear ribonucleoprotein D)	0.49	0.039	0.0677	inactive
27	LOC441468 (retired record)	0.785	-0.296	-0.612	inactive
28	ATP5PO (ATP synthase peripheral stalk subunit OSCP)	-0.141	0.0172	-0.1	inactive
29	BOP1 (BOP1 ribosomal biogenesis factor)	0.221	-2.18	-0.145	inactive
30	LOC197387 (retired record)	0.941	0.467	1.2	inactive
31	SUCLA2 (succinate-CoA ligase ADP-forming subunit beta)	0.0297	0.122	-0.814	inactive
32	LOC391403 (retired record)	-1.74	-1.37	-1.68	inactive
33	RGL3 (ral guanine nucleotide dissociation stimulator like 3)	0.815	0.143	-0.578	inactive
34	CHST9 (carbohydrate sulfotransferase 9)	-1.38	-1.03	-1.73	inactive
35	ST8SIA2 (ST8 alpha-N-acetyl-neuraminide alpha-2,8-sialyltransferase 2)	-1.48	-1.45	-1.19	inactive
36	COL6A5 (collagen type VI alpha 5 chain)	-0.905	-0.455	-0.894	inactive
37	LOC389671 (retired record)	-0.513	-0.227	-0.221	inactive
38	LINC02869 (long independently transcribed non-coding RNA 2869)	0.963	1.18	1.32	inactive
39	PJA1 (praja ring finger ubiquitin ligase 1)	-0.704	-0.283	-0.675	inactive
40	POLD4 (DNA polymerase delta 4, accessory subunit)	-0.442	-0.611	-0.112	inactive
41	SERPINB1 (serpin family B member 1)	1.5	0.954	1.09	inactive
42	HIBCH (3-hydroxyisobutyryl-CoA hydrolase)	-0.558	-0.853	-0.776	inactive
43	PLPPR4 (phospholipid phosphatase related 4)	1.49	3.53	3.31	active
44	GZF1 (GDNF inducible zinc finger protein 1)	2.23	1.64	2.54	active
45	KBTBD13 (kelch repeat and BTB domain containing 13)	0.872	1.44	0.812	inactive
46	TM6SF2 (transmembrane 6 superfamily member 2)	1.09	0.287	1.08	inactive
47	KRTCAP3 (keratinocyte associated protein 3)	-1.19	-0.633	-0.76	inactive
48	SYT3 (synaptotagmin 3)	-0.746	-1.01	-0.574	inactive
49	LOC440488 (retired record)	0.859	0.607	0.461	inactive
50	C12orf75 (chromosome 12 open reading frame 75)	-1.41	-2.01	-1.57	inactive
51	LINC00858 (long independently transcribed non-coding RNA 858)	0.289	0.239	0.521	inactive
52	RUNDC3B (RUN domain containing 3B)	-0.7	-0.0266	-0.572	inactive
53	DNAAF10 (dynein axonemal assembly factor 10)	0.377	0.689	0.558	inactive
54	LOC441544 (retired record)	-1.53	-1.68	-1.37	inactive
55	SLC16A7	-0.0214	1.05	0.635	inactive
56	SNAPC2 (small nuclear RNA activating complex polypeptide 2)	-1.86	-1.82	-1.42	inactive
57	RAPGEF5 (Rap guanine nucleotide exchange factor 5)	-0.457	-0.117	-0.00985	inactive
58	S1PR1 (sphingosine-1-phosphate receptor 1)	-0.966	-0.541	-0.301	inactive
59	F13A1 (coagulation factor XIII A chain)	0.678	0.398	0.477	inactive
60	NSL1 (NSL1 component of MIS12 kinetochore complex)	-0.165	0.492	1.42	inactive
61	SOBP (sine oculis binding protein homolog)	2.51	0.127	-0.195	inactive
62	G6PD (glucose-6-phosphate dehydrogenase)	-0.229	-0.535	-0.662	inactive
63	LINC00663 (long independently transcribed non-coding RNA 663)	0.458	0.417	0.528	inactive
64	IL2RA (interleukin 2 receptor subunit alpha)	-1.54	-2.23	-1.38	inactive
65	OCSTAMP (osteoclast stimulatory transmembrane protein)	1.12	1.03	1.41	inactive
66	NOP58 (NOP58 ribonucleoprotein)	-1.34	-1.26	-1.47	inactive
67	NLRP14 (NLR family pyrin domain containing 14)	-0.671	-0.626	-0.787	inactive
68	NTMT2 (N-terminal Xaa-Pro-Lys N-methyltransferase 2)	-0.163	1.13	0.466	inactive
69	LTC4S (leukotriene C4 synthase)	1.29	-0.644	-0.141	inactive
70	CELA3A (chymotrypsin like elastase 3A)	-1.93	-1.69	-1.67	inactive
71	NSMAF (neutral sphingomyelinase activation associated factor)	-0.313	-0.0295	-1.17	inactive
72	LHFPL4 (LHFPL tetraspan subfamily member 4)	-1.27	-1.44	-1.36	inactive
73	STYXL2 (serine/threonine/tyrosine interacting like 2)	-1.02	-0.719	-0.942	inactive
74	DPYSL4 (dihydropyrimidinase like 4)	-0.754	-1.23	-1.21	inactive
75	NDUFC1 (NADH:ubiquinone oxidoreductase subunit C1)	0.344	-0.209	-0.536	inactive
76	STPG1 (sperm tail PG-rich repeat containing 1)	-2.07	-1.95	-2.29	active
77	HAS1 (hyaluronan synthase 1)	-0.246	-0.747	-2.65	inactive
78	EID1 (EP300 interacting inhibitor of differentiation 1)	-1.47	-0.682	-0.899	inactive
79	LINC03042 (long independently transcribed non-coding RNA 3042)	0.535	0.856	1.04	inactive
80	GPR20 (G protein-coupled receptor 20)	0.658	0.601	0.822	inactive
81	NAALADL1 (N-acetylated alpha-linked acidic dipeptidase like 1)	0.419	0.947	0.546	inactive
82	RTN4RL1 (reticulon 4 receptor like 1)	1.65	0.53	0.337	inactive
83	PRPS2 (phosphoribosyl pyrophosphate synthetase 2)	-1.62	-0.891	-1.06	inactive
84	ZCCHC12 (zinc finger CCHC-type containing 12)	0.248	-0.543	-0.439	inactive
85	MXRA8 (matrix remodeling associated 8)	0.233	0.711	0.0707	inactive
86	LOC401270 (retired record)	2.61	2.2	2.63	active
87	HR (HR lysine demethylase and nuclear receptor corepressor)	-1.74	-1.97	-1.54	inactive

An excerpt of the results above:
no.	gene	robust z-score, replicate 1	robust z-score, replicate 2	robust z-score, replicate 3	activity call
45	KBTBD13 (kelch repeat and BTB domain containing 13)	0.872	1.44	0.812	inactive
46	TM6SF2 (transmembrane 6 superfamily member 2)	1.09	0.287	1.08	inactive
47	KRTCAP3 (keratinocyte associated protein 3)	-1.19	-0.633	-0.76	inactive
48	SYT3 (synaptotagmin 3)	-0.746	-1.01	-0.574	inactive
49	LOC440488 (retired record)	0.859	0.607	0.461	inactive
50	C12orf75 (chromosome 12 open reading frame 75)	-1.41	-2.01	-1.57	inactive
51	LINC00858 (long independently transcribed non-coding RNA 858)	0.289	0.239	0.521	inactive
52	RUNDC3B (RUN domain containing 3B)	-0.7	-0.0266	-0.572	inactive
53	DNAAF10 (dynein axonemal assembly factor 10)	0.377	0.689	0.558	inactive
54	LOC441544 (retired record)	-1.53	-1.68	-1.37	inactive
55	SLC16A7	-0.0214	1.05	0.635	inactive
56	SNAPC2 (small nuclear RNA activating complex polypeptide 2)	-1.86	-1.82	-1.42	inactive
57	RAPGEF5 (Rap guanine nucleotide exchange factor 5)	-0.457	-0.117	-0.00985	inactive
